Measured values taken from paper PMC6233515.
Results are given in words; binding and its absence hold for the method and conditions named. In cells and extracts the contact can be indirect. Some entries that bind do so weakly or less than the wild type. Tags and fused reporters may be left off the sequences shown.

Sequences of proteins named here, by UniProt entry; tags and fusion partners are left off. A change or cut given only in a name is not applied to a line headed by its entry. A line that says so, or that is headed by a name, gives the form on record, which may keep a tag or linker. Residues count along the entry.
Axl receptor tyrosine kinase, wild type (P30530, residues 26-894): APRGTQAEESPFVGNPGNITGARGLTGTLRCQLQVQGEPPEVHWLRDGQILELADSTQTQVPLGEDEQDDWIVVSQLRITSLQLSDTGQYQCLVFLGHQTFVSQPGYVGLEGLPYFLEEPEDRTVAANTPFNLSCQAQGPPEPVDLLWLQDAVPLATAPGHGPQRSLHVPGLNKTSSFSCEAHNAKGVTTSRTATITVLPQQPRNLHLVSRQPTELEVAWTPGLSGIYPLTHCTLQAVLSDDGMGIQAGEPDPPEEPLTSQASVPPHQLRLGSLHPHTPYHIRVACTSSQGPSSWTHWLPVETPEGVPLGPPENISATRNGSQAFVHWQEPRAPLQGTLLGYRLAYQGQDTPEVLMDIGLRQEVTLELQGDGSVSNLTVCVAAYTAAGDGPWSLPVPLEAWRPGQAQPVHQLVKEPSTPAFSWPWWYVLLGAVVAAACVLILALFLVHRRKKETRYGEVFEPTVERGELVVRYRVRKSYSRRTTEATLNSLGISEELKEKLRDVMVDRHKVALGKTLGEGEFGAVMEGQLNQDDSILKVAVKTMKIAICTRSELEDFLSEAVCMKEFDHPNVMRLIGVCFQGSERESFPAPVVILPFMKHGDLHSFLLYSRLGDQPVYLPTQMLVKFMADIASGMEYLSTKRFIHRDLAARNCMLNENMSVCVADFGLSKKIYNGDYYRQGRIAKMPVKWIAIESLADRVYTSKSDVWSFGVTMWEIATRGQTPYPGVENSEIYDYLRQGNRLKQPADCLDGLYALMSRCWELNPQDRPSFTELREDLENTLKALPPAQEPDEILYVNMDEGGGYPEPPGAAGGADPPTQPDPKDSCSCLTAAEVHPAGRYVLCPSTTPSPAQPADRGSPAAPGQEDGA
Axl kinase-death (KD) mutant K567R (P30530, form named): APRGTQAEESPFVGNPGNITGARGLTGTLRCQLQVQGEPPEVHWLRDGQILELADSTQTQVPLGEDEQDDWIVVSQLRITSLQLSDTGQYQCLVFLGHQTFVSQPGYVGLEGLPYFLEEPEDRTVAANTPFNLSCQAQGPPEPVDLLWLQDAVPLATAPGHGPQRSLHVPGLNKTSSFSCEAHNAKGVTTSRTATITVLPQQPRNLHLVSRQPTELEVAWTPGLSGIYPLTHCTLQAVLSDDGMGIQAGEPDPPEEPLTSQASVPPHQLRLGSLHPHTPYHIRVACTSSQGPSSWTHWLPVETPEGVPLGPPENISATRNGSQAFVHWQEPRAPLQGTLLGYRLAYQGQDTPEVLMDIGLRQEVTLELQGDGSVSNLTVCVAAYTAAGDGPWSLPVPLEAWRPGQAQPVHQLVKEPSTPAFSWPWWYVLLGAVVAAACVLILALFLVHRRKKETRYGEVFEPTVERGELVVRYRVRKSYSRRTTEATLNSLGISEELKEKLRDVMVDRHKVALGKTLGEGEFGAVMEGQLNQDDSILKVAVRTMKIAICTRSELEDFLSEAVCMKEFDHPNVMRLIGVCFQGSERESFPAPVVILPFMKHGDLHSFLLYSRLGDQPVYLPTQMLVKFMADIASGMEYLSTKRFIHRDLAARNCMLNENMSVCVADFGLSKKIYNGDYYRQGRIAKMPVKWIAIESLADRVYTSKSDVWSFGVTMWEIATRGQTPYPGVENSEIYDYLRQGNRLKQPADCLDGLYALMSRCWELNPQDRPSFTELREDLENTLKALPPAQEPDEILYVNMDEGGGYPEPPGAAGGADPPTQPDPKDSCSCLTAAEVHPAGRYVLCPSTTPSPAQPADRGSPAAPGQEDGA

Biological target: T1, Myc-tagged wild-type human Tensin2 (human) (UniProt Q63HR2)
T1 sequence: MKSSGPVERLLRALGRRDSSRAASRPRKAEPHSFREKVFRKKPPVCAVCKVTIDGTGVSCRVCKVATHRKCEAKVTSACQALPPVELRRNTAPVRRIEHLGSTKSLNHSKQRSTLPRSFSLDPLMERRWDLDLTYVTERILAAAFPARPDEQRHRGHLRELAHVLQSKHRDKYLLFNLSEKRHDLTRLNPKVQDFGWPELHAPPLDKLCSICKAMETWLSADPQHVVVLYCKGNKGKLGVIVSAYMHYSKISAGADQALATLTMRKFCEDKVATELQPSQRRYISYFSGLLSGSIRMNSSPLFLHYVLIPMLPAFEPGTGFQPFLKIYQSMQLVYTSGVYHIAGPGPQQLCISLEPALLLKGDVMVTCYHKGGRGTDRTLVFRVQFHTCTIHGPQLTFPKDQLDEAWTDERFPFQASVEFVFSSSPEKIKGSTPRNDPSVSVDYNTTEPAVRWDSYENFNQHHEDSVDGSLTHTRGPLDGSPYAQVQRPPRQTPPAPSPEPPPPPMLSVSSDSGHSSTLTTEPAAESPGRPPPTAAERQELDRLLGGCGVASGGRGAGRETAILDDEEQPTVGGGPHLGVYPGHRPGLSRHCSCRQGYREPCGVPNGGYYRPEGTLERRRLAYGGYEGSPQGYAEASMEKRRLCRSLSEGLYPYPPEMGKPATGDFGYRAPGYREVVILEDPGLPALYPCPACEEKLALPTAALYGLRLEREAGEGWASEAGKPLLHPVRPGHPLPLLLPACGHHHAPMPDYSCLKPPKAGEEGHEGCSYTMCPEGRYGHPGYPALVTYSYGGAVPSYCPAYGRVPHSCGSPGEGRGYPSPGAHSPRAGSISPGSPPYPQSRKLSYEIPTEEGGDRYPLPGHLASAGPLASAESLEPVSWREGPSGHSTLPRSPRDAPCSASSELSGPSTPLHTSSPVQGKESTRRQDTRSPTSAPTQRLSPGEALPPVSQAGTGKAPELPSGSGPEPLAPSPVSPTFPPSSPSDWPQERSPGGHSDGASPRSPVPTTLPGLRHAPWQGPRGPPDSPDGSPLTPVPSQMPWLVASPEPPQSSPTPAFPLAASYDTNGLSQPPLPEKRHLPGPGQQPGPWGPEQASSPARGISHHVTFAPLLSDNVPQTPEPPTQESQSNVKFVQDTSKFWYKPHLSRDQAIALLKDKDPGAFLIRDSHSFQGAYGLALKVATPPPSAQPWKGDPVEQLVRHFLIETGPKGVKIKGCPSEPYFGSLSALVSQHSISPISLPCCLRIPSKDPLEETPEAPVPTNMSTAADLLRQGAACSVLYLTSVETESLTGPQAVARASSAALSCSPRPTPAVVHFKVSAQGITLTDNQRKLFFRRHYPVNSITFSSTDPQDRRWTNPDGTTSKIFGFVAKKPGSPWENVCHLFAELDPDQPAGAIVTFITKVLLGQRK
Assay: co-IP; HEK293T cells transfected with Axl (wild type or mutants) and Myc-TNS2; NETN lysis buffer (150 mM NaCl, 1 mM EDTA, 20 mM Tris-Cl pH 8.0, 0.5% NP-40); reciprocal IP with anti-Myc (9E10) or anti-Axl (C-20) at 4 °C overnight, protein A/G-agarose; Western blot

Substance | binding
Axl kinase-death (KD) mutant K567R (from UniProt P30530 26-894) (receptor) | no binding
Axl receptor tyrosine kinase, wild type (from UniProt P30530 26-894) | binds
